# Assay results published in the supplement of paper PMC3334620.
# The full ranking holds about 33,000 sequences; the median of “E-score (-0.5 to 0.5)” is about -0.0059, and the highest 2% start at about 0.26. The list shows a part of the results.
# Target: T1, Cin5 (UniProt P40917)
# T1 sequence: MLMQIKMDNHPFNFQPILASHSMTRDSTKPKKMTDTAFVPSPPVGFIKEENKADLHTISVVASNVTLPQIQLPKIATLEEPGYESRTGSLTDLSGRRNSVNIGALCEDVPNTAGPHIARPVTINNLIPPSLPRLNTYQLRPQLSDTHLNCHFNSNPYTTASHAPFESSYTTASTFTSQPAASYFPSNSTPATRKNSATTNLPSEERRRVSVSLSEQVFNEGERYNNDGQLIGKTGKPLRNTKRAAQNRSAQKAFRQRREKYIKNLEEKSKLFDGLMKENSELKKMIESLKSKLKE
# Test: PBM E-score (8-mer binding enrichment) (E-score (-0.5 to 0.5)); higher = stronger / more preferred TF binding
# Settings: protein concentration: 100 nM; construct: GST-full length
# Outline: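 Masliner-normalised scans of fluorescent anti-GST signal were the basis for scoring. That signal came from GST-tagged yeast transcription factors applied at about 100-200 nM to double-stranded universal all-10-mer Agilent arrays on fresh or once-stripped slides. Each ungapped eight-base word, pooled with its reverse complement, received an E-score from the Universal PBM Analysis Suite.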
row,Sequence,PBM E-score
1,GATAACAC,0.165
2,AGGTATCC,0.0225
3,ACATACAC,0.118
4,GGAGGAAA,-0.107
5,GTGCTGCA,-0.0502
6,GCGTGCGA,-0.0562
7,GCTGACGA,0.181
8,CCCGGAGA,0.0171
9,CGTGAAAA,0.145
10,ATCAGGGC,-0.118
11,CTTCATCA,0.0543
12,CGATAGGC,-0.026
13,CACAAGGA,-0.0252
14,AATTGCGG,-0.0237
15,GTTCGAGA,-0.00774
16,ATAAAGCC,-0.084
17,ACTGGGGG,-0.425
18,AACTTCCT,0.0558
19,CAGTAGAA,0.0667
20,CGGGTGAC,-0.0551
21,GCGACGCC,-0.0013
22,AGAATATG,0.231
23,GCCGTCAC,0.0366
24,CTATTCTA,0.155
25,CGTTTACC,0.226

row,Sequence,PBM E-score
1,GATCCAAC,-0.0889
2,CTTACAAC,0.136
3,CTGAGCAG,-0.0991
4,AACGCCGC,0.137
5,CCCTATAG,-0.00306
6,GTAGTAAC,0.0222
7,ACAGAAAA,0.158
8,AGATCATA,0.186
9,CCGCAAGA,0.0476
10,AATATAGA,0.186
11,AAACTCCT,-0.177
12,AGGTGCAC,0.00232
13,AAGTTTAT,0.178
14,GCATAGCA,-0.0462
15,GACCTTGC,-0.25
16,GGGGTCTA,-0.0419
17,GTATCCCA,0.0573
18,ATTCGCAA,0.171
19,AAAGGCAA,0.134
20,CACTACTA,0.14
21,CACCCATG,-0.0397
22,GTAAAGAA,0.0223
23,CGAATGAC,0.275
24,AAGAAGGC,-0.0773
25,CGTAGCTC,0.0879

row,Sequence,PBM E-score
1,CATTTAAG,0.0446
2,CACTCTAA,0.00766
3,GACGCCTC,-0.0208
4,GGGAATTA,0.135
5,ACCGTTAC,-0.0809
6,GCAGTTAC,0.139
7,CATTATAG,0.185
8,GTTACAGA,-0.00519
9,ATCTCTCG,-0.027
10,CCCACGCC,-0.267
11,ATACGAAT,0.0148
12,TCGATTCA,0.108
13,CCTCATCA,0.106
14,ATGACTTC,0.0774
15,ACTTTCCT,0.119
16,CGCAAGCC,0.0497
17,GACGGCAA,-0.0246
18,CATTTGGC,-0.0189
19,GTGACTTA,0.0722
20,ACGCCTGA,-0.0546
21,AAGGTAAG,0.113
22,TATGCGCA,0.0647
23,ACGCGACC,-0.0572
24,CAATCGCG,0.0471
25,GGCAGGGA,-0.0516

row,Sequence,PBM E-score
1,TCATGGCA,-0.0173
2,CGTCGAGC,-0.0762
3,TAACCCAA,0.0919
4,CCCAATTC,0.231
5,AGTAAGGA,0.0657
6,AGTAGTAC,0.225
7,CAATAAGC,0.0492
8,ATATGAGC,0.0395
9,GGCATACC,-0.0672
10,AAGGTTAT,0.00317
11,CAAAGCTG,0.0494
12,AACCGAGT,-0.135
13,AACTGTTA,0.209
14,CCTGCGTA,-0.115
15,GGCAAAGA,0.0547
16,ACACGTCG,-0.319
17,AATGGTTC,0.02
18,GAGTGGCC,-0.18
19,AGTGCGTG,-0.0238
20,ATGAGACA,0.163
21,GACCGAAC,-0.0429
22,GCATCGCC,-0.144
23,ATAGATAC,0.224
24,GTACACGA,0.14
25,CCGTATGA,0.0393

# A different layout for part of the listing above:
row	Sequence	PBM E-score
20	CGGGTGAC	-0.0551
21	GCGACGCC	-0.0013
22	AGAATATG	0.231
23	GCCGTCAC	0.0366
24	CTATTCTA	0.155
25	CGTTTACC	0.226
1	GATCCAAC	-0.0889

# Next part

row,Sequence,PBM E-score
1,TTACTGAA,0.092
2,AGCAGTCC,-0.143
3,CGCGCTGA,0.104
4,GACATTCA,-0.0105
5,CTAAGACA,0.0386
6,GACAAATC,0.16
7,AGGCCCTG,-0.258
8,GAAAAAAA,0.204
9,CCGGTTTC,0.0044
10,TCTGCTCA,-0.144
11,CAAAAGGG,-0.141
12,GAAAAGAC,0.0608
13,CGCCTTAC,-0.18
14,GAAATGCA,0.141
15,GCGCTGCC,-0.32
16,CAATCGAG,0.0295
17,ACCATGTC,-0.0115
18,CGGTTTTA,0.0231
19,CATTCCCC,0.11
20,CCTAAGCA,0.155
21,GCGTGACA,0.0384
22,CTGCTATA,0.117
23,GGAAGTAA,0.161
24,CGCTGGAA,-0.174
25,GACATGAC,-0.128

row,Sequence,PBM E-score
1,GGTAATTA,0.188
2,CCGAATTC,0.015
3,ATCACGGG,-0.0407
4,AAGCTCTA,-0.00578
5,CGACGGCA,-0.198
6,GAAGCTGA,0.0805
7,CACTACGA,-0.0486
8,GGATTAGA,0.165
9,AGATAACG,0.242
10,GATTTACA,0.122
11,AGTTTTTG,0.107
12,GCACCGAC,-0.0796
13,ACGTTGCT,0.188
14,CACTGTAC,-0.0867
15,CATAATGC,0.0534
16,GGCAGGAC,-0.138
17,GCCTCCCA,-0.249
18,GAACGACA,0.0804
19,ATTACTTA,0.411
20,CTTATTTC,0.238
21,CGTTACCA,0.0697
22,CCGTACCA,0.0407
23,AACCCGCG,0.157
24,CTAAACAG,-0.0317
25,AACATGTG,0.257

row,Sequence,PBM E-score
1,CGGTGACA,-0.0328
2,CATAGCAC,0.0563
3,CCCCGACG,-0.00202
4,CTAGACGC,-0.204
5,CTAAAGAG,-0.125
6,AAAAGTGC,0.0297
7,GAATCATA,0.152
8,CATCACTA,0.0954
9,GTCATAAC,0.0128
10,CCACCGGG,-0.196
11,CATTTAAA,0.193
12,AGGCCAGA,-0.0898
13,CCGGTTTA,-0.0883
14,AATCACCA,0.212
15,AACTAAAT,0.167
16,ACAGGCCC,-0.267
17,CCACTTTC,-0.0281
18,CAGGGACG,-0.205
19,TCGGCCAA,-0.00266
20,CGAATGGC,0.195
21,GGCCACGA,-0.163
22,CCCACTGC,0.0176

# Part of the list above in another layout.
row	Sequence	PBM E-score
12	AGGCCAGA	-0.0898
14	AATCACCA	0.212
22	CCCACTGC	0.0176
